The values below come from PMC8816719.

By UniProt entry, the sequences of proteins in these tests, tags left out. Where a name states a change or a piece, a line headed by the entry shows the natural chain unless it says otherwise. Residues count along the entry.
UniProt P30101, residues 25-505: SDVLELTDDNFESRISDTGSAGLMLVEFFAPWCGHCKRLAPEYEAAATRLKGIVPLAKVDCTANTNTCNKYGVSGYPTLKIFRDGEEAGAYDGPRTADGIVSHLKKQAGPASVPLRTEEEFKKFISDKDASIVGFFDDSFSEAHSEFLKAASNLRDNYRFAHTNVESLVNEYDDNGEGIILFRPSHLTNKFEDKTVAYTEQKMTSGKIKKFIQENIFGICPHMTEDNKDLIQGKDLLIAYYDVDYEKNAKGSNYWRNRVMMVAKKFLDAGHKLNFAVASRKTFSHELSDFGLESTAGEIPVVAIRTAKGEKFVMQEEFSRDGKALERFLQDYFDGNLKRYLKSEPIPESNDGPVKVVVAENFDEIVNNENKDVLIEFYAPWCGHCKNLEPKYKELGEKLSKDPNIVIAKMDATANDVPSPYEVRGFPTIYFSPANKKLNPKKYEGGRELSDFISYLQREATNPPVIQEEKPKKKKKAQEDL
UniProt O95994, residues 21-175: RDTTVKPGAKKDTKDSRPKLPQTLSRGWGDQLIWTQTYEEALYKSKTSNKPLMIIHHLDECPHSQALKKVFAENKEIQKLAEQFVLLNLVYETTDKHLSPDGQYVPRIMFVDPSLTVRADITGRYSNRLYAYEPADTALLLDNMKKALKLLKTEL

The target of test [1] is T1, E7 peptide (AGR2-specific biotinylated peptide aptamer).
T1 sequence (peptide, biotin (position not stated)): SGSGPTTIYY
The experiment in a line: pull-down; biotinylated E7 peptide on streptavidin-agarose incubated overnight at 4 °C with cell lysate (T47D, or mixed H1299 + H1299-AGR2); washed 6x with PBS-T; AGR2 in the eluates detected by immunoblotting and LC-MS/MS; only the target purified. (In general: Immunoblotting shows a protein as a band on a membrane.)

Test [2] deals with T2, Protein disulfide isomerase family A, member 6 (PDIA6) (human (endogenous in T47D, H1299, A549)) (UniProt Q15084).
T2 sequence: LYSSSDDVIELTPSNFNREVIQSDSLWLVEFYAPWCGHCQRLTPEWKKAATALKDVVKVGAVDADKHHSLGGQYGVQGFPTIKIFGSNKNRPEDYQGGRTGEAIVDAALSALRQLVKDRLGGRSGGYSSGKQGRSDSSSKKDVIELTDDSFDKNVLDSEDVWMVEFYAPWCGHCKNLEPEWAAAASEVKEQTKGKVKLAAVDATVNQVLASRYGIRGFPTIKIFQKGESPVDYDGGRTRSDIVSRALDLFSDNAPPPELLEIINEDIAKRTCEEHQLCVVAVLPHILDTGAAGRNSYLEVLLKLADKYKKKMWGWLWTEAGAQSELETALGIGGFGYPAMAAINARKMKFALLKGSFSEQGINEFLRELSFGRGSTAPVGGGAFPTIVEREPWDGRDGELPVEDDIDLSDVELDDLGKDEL
As to the kind of experiment: co-IP; T47D lysates (200 ug), cells exposed or unexposed to DSP; antibody to AGR2, PDIA3 or PDIA6 at 1 ug/ml overnight at 4 °C, Protein G Sepharose; non-specific antibody as control; immunoblot.

Test [3] deals with Protein disulfide isomerase family A, member 3 (PDIA3) (human (endogenous in T47D, H1299, A549)) (UniProt P30101). The test is described as above.
The target of test [4] is Anterior gradient 2 (AGR2), stably expressed in H1299-LZ4-AGR2 cells (human) (UniProt O95994). The experiment in a line: proximity ligation; fixed and permeabilised cells (T47D, A549, H1299-AGR2); primary antibodies to AGR2 and PDIA3 or PDIA6; Duolink In Situ Red Kit Mouse/Rabbit.
Test [5] concerns the target Anterior gradient 2 (AGR2), endogenous (human (endogenous in T47D, A549)) (UniProt O95994). The description is as above.
Test [6] shares this target. As to the kind of experiment: co-IP; T47D lysates (200 ug), cells exposed or unexposed to DSP; antibody to AGR2, PDIA3 or PDIA6 at 1 ug/ml overnight at 4 °C, Protein G Sepharose; non-specific antibody as control; immunoblot.
Test [7] shares this target. As to the kind of experiment: co-IP; A549 and T47D cells untreated or exposed for 16 h to ER stress inducers (tunicamycin, thapsigargin, DTT); lysates, antibody, Protein G Sepharose; immunoblot.

No constants are given. Whether binding was seen depends on the method and setting. In cells and extracts the contact can be indirect. Some entries that bind do so weakly or less than the wild type.

Regarding “Anterior gradient 2 (AGR2), endogenous (from UniProt O95994 21-175)”, the binding entry in test [1], in test [2] and in test [3] was “binds” in each case.

With “Anterior gradient 2 (AGR2), stably expressed in H1299-LZ4-AGR2 cells (from UniProt O95994 21-175)”, the binding entry in test [1] is on record as “binds”.

With “Protein disulfide isomerase family A, member 3 (PDIA3) (from UniProt P30101 25-505)”, the binding entry in test [4], in test [5], in test [6] and in test [7] was “binds” each time.

B1: Protein disulfide isomerase family A, member 6 (PDIA6) (protein, UniProt Q15084 20-440)
chain: T2 sequence
B1: the binding result in test [4], in test [5] and in test [6] was “binds” in each case.
